# Results published in publication PMC5996148.
# This is one part of the list.
# Key:
# Assay in all cases: protein microarray (ProtoArray v5.0), streptavidin-Alexa Fluor 647
# Settings in all cases: 3'-biotin; 20 mM Tris (pH 7.5), 5 mM MgCl2, 100 mM KCl, 0.1% Tween-20, A/T-rich and random oligonucleotide blockers; temperature not stated; high values mean tight binding
# [1] = tested on: Leukotriene C4 synthase (human)
# [2] = tested on: Ligand-dependent nuclear receptor corepressor-like protein (human)
# [3] = tested on: Linker for activation of T-cells family member 1 (human)
# [4] = tested on: Lipoma HMGIC fusion partner (human)
# [5] = tested on: LisH domain-containing protein ARMC9 (human)
# [6] = tested on: Long-chain-fatty-acid--CoA ligase ACSBG1 (human)
# [7] = tested on: Low molecular weight phosphotyrosine protein phosphatase (human)
# [8] = tested on: Ly6/PLAUR domain-containing protein 5 (human)
# [9] = tested on: Lymphocyte antigen 6D (human)
# Lysozyme C (human) = tested on: Lysozyme C (human)
sequence,measurement,setting,value
GGGAGGCTGAGGCAGG [G4-1 biotinylated (PQS2)],binding signal,[1],-0.318 z-score
same,binding signal,[2],-0.314 z-score
same,binding signal,[3],-0.362 z-score
same,binding signal,[4],-0.277 z-score
same,binding signal,[5],-0.337 z-score
same,binding signal,[6],-0.284 z-score
same,binding signal,[7],-0.305 z-score
same,binding signal,[8],-0.336 z-score
same,binding signal,[9],-0.266 z-score
same,binding signal,Lysozyme C (human),-0.269 z-score

# Part of the list above, with bars between the fields:
sequence | measurement | setting | value
GGGAGGCTGAGGCAGG [G4-1 biotinylated (PQS2)] | binding signal | [7] | -0.305 z-score
same | binding signal | [8] | -0.336 z-score
